Assay results published in patent US12144864B2 (Regeneron Pharmaceuticals, Inc., priority 2018, dated 2024).

Assay: peptide synthesis
Settings: for final HPLC purity: whole synthesis, HPLC-MS, Agilent 1200 HPLC/6100 SQ, C18 columns, DAD (214 nm and 254 nm), ELSD

| Substance | step yield (coupling step) | step yield (late stage modification step) | final HPLC purity [%] | step yield (late stage modification step, 2 steps) [% yield in 2 steps] |
| --- | --- | --- | --- | --- |
| (S)-4-(2-((1R,3R)-1-Acetoxy-3-((2S,3S)—N-(hex-5-ynyl)-3-methyl-2-((R)-1-methylpiperidine-2-carboxamido)pentanamido)-4-methylpentyl)thiazole-4-carboxamido)-5-(4-(benzyloxy)-3-nitrophenyl)-2,2-dimethylpentanoic acid | 40% | – | – | – |
| (S)-4-(2-((1R,3R)-1-Acetoxy-3-((2S,3S)—N-hexyl-3-methyl-2-((R)-1-methylpiperidine-2-carboxamido)pentanamido)-4-methylpentyl)thiazole-4-carboxamido)-5-(3-amino-4-hydroxyphenyl)-2,2-dimethylpentanoic acid | – | 12% | 100 | – |
| (S)-4-(2-((1R,3R)-1-Acetoxy-3-((2S,3S)—N-hexyl-3-methyl-2-((R)-1-methylpiperidine-2-carboxamido)pentanamido)-4-methylpentyl)thiazole-4-carboxamido)-5-(4-aminophenyl)-2,2-dimethylpentanoic acid | 72% yield | – | 97.2 | – |
| (S)-4-(2-((1R,3R)-1-acetoxy-3-((2S,3S)—N-(4-(1-(carboxymethyl)-1H-1,2,3-triazol-4-yl)butyl)-3-methyl-2-((R)-1-methylpiperidine-2-carboxamido)pentanamido)-4-methylpentyl)thiazole-4-carboxamido)-5-(4-aminophenyl)-2,2-dimethylpentanoic acid | – | – | 97 | 16 |
| (S)-4-(2-((1R,3R)-1-acetoxy-4-methyl-3-((2S,3S)-3-methyl-2-((R)-1-methylpiperidine-2-carboxamido)-N-(4-(1-phenyl-1H-1,2,3-triazol-4-yl)butyl)pentanamido)pentyl)thiazole-4-carboxamido)-5-(4-aminophenyl)-2,2-dimethylpentanoic acid | – | 40% yield | 100 | – |
| (S)-4-(2-((1R,3R)-1-acetoxy-4-methyl-3-((2S,3S)-3-methyl-N-(4-(1-methyl-1H-1,2,3-triazol-4-yl)butyl)-2-((R)-1-methylpiperidine-2-carboxamido)pentanamido)pentyl)thiazole-4-carboxamido)-5-(4-aminophenyl)-2,2-dimethylpentanoic acid | – | 27% yield | 99 | – |
| (S)-4-(2-((1R,3R)-3-((2S,3S)—N-(4-(1H-1,2,3-triazol-5-yl)butyl)-3-methyl-2-((R)-1-methylpiperidine-2-carboxamido)pentanamido)-1-acetoxy-4-methylpentyl)thiazole-4-carboxamido)-5-(4-aminophenyl)-2,2-dimethylpentanoic acid | – | 35% yield | 100 | – |
